This assay concerns the target N-terminally HA-tagged ISG15VS (human) (UniProt P05161). Briefly: covalent labelling with active-site directed probe (anti-HA immunoblot); 10 µg of EL4 subcellular fraction protein incubated with 0.2 µg of HA-ISG15VS in 10 µl for two hours at room temperature; proteasome inhibited with MG132 (50 µM); only the target purified.

By UniProt entry, the sequences of proteins in these tests, tags left out. Residues count along the entry.
UniProt P05161, residues 1-157: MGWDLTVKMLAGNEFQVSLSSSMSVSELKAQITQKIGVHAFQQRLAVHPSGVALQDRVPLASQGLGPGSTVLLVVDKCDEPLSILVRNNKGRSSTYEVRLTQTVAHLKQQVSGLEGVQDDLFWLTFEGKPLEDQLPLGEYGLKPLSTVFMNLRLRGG
UniProt P56399: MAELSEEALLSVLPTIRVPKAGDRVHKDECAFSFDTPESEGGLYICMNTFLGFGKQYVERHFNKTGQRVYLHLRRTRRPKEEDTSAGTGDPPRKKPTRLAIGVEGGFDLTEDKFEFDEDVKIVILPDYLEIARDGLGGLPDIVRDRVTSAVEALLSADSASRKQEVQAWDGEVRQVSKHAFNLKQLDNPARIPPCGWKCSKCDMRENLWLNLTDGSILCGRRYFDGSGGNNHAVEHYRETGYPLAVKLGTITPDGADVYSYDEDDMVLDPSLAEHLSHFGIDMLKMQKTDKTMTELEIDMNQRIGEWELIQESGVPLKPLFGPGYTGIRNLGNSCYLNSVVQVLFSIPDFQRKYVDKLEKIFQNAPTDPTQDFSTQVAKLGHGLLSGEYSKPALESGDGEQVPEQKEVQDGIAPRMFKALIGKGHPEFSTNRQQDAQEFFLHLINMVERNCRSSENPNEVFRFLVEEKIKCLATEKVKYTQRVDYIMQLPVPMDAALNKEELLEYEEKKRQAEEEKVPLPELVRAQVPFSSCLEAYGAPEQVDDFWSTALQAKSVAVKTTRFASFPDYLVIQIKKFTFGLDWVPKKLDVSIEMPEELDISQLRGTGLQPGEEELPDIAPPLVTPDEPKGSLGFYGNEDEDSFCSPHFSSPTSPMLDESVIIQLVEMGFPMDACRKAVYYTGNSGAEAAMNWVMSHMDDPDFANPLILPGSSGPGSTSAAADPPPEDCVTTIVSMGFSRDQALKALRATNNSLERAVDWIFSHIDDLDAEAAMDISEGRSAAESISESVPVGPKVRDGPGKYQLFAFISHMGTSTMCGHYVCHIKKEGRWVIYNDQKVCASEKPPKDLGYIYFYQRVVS
UniProt Q9JMA1: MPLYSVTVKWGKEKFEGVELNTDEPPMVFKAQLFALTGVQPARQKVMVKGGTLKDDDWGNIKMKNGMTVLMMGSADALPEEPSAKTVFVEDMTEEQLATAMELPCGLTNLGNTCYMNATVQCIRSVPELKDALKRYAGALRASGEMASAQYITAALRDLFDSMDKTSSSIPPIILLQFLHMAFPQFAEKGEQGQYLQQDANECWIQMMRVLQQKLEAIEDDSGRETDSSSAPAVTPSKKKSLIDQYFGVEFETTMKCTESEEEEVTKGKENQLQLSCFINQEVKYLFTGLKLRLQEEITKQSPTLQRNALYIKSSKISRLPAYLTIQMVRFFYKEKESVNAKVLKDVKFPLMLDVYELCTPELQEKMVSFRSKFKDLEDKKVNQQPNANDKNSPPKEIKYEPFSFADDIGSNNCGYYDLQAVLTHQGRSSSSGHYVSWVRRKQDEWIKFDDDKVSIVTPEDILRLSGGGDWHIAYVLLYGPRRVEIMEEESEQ

Results are given in words; binding and its absence hold for the method and conditions named. Some entries that bind do so weakly or less than the wild type.

On to “USP5 of the five-hour supernatant of EL4 cells (from UniProt P56399 1-858) (enzyme)”, for which the binding entry is reported as “binds”.
Regarding “USP14 of the proteasome-enriched fraction of EL4 cells (from UniProt Q9JMA1 1-493) (enzyme)”, the binding entry is “binds”.

The values are drawn from publication PMC1919423.
